The results in this text go back to publication PMC3232247.

Amino acid sequences for entries named in this document (tags omitted). A change or cut given only in a name is not applied to a line headed by its entry.
UniProt P61956: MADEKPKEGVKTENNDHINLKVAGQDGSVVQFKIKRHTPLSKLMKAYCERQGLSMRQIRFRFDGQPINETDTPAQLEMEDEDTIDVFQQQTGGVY
UniProt P04897: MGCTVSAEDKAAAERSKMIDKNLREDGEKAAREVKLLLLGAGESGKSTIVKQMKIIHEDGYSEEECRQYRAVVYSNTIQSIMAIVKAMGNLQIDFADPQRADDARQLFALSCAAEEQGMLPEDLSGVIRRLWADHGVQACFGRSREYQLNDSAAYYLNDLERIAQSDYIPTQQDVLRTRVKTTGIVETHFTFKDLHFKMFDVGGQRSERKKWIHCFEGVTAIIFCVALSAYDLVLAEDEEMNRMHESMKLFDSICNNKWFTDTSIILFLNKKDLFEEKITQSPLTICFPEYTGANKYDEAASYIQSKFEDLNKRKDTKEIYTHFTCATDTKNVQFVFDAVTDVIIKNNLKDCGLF

Assay [1] deals with SUMO2 (UniProt P61956). Put plainly: pull-down; SUMO1-, SUMO2- or SUMO3-agarose incubated with the recombinant protein for 2 h at room temperature in 50 mM HEPES pH 8.0, 1 mM EDTA, 1 mM DTT, 0.05% C12E10; washed beads boiled, immunoblot; both purified. A general note: In western blotting, separated proteins are transferred to a membrane and probed.
Assay [2] concerns the target SUMO2 (UniProt P61956). The assay is described as above. The source holds these as a separate data set.

Read-outs that look alike come from different tables or passages of the source. Results are given in words; binding and its absence hold for the method and conditions named. For some assays here: A result given as binding can be weak or reduced; the word gives no strength. For some assays here: Tags and fused reporters may be left off the sequences shown.

In the case of “Gαi2 subunit (from UniProt P04897 1-355)”, in the assay with SUMO2 [1], the binding result is listed as “no binding”.

B1: RGSZ2 (regulator of G protein signaling 17), recombinant, GST-free (protein, UniProt Q9QZB0 1-210)
chain: MRKRQQSQNEGTQAVSQAPGNQRPNNTCCFCWCCCCSCSCLTVRNEERGDSSGRSPHTTKMESIQVLEECQNPTADEVLSWSQNFDKMMKTPAGRNLFREFLRTEYSEENLLFWLACEDLKKEQNKKAVEEKARMIYEDYISILSPKEVSLDSRVREVINRSLLDPSPHMYEDAQLQIYTLMHRDSFPRFLNSQIYKAFVESTTSCTSES
Turning to B1, the binding entry with SUMO2 [2] is on record as “binds”.
